Experimental data: the supplement of paper PMC10849652
Some of the results follow.

The chains behind the UniProt entries cited, without tags or fusion partners. Where a name states a change or a piece, a line headed by the entry shows the natural chain unless it says otherwise.
UniProt Q6UY14: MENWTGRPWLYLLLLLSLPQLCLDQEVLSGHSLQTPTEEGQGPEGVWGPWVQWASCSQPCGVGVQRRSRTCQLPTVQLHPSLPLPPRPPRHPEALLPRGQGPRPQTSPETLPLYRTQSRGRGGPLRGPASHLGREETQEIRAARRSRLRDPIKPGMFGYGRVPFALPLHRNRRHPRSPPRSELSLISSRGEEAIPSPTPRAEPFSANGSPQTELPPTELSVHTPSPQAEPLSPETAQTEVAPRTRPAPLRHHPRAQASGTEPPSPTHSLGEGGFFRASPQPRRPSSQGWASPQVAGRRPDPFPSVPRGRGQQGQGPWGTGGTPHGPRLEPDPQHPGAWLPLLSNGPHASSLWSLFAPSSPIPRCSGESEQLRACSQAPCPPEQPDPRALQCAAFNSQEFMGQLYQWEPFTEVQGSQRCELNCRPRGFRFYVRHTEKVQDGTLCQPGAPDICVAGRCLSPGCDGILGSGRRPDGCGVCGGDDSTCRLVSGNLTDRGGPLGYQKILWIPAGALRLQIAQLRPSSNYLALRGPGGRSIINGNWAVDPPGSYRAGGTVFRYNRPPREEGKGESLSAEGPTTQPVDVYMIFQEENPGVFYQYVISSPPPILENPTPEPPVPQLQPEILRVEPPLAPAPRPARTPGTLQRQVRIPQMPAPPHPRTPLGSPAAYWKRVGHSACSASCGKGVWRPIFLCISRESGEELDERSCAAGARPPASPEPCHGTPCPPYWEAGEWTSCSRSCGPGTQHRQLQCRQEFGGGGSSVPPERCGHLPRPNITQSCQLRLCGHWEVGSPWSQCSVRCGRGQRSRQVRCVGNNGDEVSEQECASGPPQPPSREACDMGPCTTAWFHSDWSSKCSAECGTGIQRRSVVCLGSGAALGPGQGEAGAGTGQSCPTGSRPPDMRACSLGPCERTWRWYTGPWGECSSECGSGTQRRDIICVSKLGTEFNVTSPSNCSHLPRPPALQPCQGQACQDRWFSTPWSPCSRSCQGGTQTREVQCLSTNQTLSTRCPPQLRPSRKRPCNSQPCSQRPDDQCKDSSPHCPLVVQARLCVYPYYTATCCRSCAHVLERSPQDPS
UniProt O60488: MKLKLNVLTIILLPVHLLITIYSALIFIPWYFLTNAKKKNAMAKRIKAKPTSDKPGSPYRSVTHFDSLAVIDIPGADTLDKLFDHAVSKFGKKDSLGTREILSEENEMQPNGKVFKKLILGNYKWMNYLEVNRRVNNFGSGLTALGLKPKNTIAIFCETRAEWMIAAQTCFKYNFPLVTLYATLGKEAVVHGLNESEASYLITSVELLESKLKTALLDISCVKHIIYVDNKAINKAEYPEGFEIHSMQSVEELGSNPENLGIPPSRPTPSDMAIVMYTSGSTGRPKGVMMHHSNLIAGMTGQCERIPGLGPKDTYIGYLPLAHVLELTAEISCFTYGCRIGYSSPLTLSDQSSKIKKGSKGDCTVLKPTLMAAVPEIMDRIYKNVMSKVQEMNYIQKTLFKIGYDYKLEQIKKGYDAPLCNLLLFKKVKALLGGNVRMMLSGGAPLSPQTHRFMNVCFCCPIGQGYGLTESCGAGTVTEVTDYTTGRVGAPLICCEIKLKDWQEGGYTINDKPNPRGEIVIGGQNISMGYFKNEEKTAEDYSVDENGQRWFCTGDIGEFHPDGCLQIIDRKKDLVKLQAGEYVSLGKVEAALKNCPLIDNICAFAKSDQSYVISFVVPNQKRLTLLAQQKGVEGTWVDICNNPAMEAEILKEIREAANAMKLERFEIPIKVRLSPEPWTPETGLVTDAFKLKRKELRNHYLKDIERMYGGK
UniProt Q8N2K0: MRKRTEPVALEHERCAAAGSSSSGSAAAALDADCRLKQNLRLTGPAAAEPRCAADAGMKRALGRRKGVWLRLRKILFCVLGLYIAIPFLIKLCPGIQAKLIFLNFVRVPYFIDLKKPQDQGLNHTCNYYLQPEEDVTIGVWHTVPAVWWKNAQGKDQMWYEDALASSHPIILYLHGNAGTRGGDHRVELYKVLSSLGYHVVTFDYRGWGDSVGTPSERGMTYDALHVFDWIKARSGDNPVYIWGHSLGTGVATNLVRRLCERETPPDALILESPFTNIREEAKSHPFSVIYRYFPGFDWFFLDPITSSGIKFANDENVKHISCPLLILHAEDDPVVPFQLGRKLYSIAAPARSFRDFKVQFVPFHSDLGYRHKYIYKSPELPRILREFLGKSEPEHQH
UniProt Q7Z6V5: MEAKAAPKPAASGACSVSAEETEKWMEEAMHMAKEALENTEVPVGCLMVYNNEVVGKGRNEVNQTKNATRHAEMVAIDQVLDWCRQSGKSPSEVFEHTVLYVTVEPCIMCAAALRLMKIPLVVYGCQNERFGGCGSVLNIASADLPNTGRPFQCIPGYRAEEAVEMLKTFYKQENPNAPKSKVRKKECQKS
UniProt Q562R1, whole entry, looked up: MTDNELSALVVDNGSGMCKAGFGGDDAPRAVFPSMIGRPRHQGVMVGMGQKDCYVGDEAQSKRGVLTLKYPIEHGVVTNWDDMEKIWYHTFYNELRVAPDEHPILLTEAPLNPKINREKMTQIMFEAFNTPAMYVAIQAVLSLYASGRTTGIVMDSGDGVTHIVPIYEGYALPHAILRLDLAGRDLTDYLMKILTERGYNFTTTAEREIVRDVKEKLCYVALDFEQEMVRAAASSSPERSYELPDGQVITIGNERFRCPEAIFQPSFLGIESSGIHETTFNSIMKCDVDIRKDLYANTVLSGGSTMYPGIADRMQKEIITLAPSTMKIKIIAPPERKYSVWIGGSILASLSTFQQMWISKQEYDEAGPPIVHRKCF
UniProt Q9UG63: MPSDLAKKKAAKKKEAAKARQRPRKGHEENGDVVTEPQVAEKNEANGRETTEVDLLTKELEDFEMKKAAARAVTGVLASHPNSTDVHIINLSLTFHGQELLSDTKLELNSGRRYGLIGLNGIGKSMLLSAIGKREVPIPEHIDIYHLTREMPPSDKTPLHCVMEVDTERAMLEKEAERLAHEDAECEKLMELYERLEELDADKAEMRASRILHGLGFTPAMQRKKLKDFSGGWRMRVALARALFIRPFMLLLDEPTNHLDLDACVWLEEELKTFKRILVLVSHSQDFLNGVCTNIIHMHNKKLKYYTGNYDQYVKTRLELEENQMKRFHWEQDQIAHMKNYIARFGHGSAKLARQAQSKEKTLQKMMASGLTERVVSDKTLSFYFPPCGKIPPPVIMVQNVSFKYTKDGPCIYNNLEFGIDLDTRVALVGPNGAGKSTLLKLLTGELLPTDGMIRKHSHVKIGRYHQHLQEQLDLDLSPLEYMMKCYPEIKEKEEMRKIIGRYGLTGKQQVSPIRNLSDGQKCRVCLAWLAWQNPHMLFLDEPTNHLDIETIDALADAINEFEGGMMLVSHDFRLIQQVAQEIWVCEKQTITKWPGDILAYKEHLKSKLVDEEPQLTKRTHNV
UniProt Q9H7C9: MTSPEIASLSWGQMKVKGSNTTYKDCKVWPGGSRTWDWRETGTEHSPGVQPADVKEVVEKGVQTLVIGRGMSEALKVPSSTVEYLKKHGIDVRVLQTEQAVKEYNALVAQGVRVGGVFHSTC
UniProt P49748: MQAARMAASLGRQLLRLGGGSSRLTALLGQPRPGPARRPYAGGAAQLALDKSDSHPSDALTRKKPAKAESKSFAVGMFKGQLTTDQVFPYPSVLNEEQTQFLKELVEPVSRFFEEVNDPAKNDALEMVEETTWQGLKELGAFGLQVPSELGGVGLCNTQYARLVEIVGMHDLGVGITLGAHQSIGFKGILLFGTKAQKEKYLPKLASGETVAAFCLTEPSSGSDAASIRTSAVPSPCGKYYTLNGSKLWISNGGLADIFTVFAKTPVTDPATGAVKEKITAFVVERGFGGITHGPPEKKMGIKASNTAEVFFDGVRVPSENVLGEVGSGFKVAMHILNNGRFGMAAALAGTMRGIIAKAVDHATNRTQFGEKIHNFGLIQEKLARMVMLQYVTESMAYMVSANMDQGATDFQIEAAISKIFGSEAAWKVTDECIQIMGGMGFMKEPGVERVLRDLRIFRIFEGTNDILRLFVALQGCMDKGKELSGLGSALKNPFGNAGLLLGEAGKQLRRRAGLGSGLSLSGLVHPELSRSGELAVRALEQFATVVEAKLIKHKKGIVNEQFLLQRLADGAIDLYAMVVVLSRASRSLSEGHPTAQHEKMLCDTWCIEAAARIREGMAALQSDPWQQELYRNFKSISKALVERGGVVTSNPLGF
UniProt Q9NYB9: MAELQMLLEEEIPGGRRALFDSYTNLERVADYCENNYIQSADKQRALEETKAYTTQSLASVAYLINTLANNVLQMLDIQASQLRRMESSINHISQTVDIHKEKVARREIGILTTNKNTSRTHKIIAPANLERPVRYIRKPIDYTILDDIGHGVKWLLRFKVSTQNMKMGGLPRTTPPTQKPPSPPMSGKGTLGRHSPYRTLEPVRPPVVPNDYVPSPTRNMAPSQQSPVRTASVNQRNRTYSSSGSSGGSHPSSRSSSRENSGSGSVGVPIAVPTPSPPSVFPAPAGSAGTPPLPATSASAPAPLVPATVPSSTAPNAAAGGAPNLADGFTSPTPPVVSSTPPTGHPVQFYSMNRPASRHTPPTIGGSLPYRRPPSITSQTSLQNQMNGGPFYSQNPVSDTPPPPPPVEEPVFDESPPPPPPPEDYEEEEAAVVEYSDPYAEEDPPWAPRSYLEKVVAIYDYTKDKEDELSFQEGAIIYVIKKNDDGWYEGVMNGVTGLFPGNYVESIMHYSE
UniProt O14672: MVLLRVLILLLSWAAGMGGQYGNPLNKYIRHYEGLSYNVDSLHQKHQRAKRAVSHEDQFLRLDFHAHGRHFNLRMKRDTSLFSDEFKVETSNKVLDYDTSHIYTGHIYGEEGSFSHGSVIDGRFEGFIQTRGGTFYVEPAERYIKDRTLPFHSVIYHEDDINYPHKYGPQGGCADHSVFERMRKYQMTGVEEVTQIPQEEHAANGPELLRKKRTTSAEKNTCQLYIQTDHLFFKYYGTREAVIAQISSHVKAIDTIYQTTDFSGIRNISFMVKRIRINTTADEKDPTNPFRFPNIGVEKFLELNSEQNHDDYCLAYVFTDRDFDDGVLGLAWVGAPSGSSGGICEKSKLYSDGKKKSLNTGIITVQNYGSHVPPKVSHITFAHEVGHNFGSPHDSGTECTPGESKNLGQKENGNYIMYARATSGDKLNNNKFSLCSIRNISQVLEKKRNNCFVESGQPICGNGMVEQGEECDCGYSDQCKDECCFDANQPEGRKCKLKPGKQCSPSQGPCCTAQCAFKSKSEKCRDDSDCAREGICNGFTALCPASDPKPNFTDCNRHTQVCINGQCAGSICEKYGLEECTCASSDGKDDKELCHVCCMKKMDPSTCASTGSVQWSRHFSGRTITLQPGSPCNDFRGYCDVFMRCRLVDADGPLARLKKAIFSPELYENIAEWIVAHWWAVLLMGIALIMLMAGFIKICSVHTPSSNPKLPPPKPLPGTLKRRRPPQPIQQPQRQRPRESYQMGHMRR
UniProt P53396: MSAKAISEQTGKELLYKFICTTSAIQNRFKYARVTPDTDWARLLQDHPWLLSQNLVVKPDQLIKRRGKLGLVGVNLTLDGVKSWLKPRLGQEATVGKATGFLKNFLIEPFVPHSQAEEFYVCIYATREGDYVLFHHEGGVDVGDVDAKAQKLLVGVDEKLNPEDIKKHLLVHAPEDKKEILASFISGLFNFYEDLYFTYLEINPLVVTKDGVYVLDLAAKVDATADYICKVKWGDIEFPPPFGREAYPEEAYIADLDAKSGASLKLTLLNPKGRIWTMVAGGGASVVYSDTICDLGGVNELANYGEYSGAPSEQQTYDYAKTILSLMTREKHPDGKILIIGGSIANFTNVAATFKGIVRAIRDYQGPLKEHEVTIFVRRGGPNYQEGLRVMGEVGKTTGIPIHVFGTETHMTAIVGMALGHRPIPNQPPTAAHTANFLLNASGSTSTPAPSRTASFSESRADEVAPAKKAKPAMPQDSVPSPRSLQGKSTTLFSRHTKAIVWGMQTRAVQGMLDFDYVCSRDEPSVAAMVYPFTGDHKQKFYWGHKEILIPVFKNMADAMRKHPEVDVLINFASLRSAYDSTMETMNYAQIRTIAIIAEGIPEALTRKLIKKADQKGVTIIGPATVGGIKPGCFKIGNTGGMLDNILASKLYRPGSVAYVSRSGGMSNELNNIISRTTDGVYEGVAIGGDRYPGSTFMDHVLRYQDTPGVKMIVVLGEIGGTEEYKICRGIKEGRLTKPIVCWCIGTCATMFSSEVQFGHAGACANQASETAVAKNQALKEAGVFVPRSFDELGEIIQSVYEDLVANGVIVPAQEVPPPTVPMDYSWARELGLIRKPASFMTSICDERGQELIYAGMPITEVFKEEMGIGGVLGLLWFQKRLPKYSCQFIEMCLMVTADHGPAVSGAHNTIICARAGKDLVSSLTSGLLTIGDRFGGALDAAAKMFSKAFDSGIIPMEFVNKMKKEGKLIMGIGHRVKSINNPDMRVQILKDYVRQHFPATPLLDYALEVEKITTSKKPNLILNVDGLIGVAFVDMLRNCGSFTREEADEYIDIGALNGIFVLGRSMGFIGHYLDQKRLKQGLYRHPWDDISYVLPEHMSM

Tests used:
Test in all cases: log2 fold change, soluble protein after heating vs DMSO (PISA); higher = thermal stabilisation; K562 cells, 10 uM, 30 min; active = over 0.2 and 3.5 SD of the protein, either way, in both replicates (recomputed)
[1] = compound: CC[C@@H]1C(=O)N(C)c2cnc(Nc3ccc(C(=O)NC4CCN(C)CC4)cc3OC)nc2N1C1CCCC1
How it was run: (§1)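 Aliquots of K562 cells (2×10^6 cells/mL) treated with 10 μM compound for 30 min were heated for 3 min over 48°C-58°C. After pooling and extraction in PBS with 0.5% NP-40 at 4°C, soluble protein from a 21,000xg, 90 min spin was quantified by TMTpro 16plex LC-MS/MS with channel sums equalised. Thermal stability is expressed against control samples, from duplicates, as a log2 fold change.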

[2] = compound: CC[C@@H]1C(=O)N(C)c2cnc(Nc3ccc(C(=O)N[C@H]4CC[C@H](N5CCN(CC6CC6)CC5)CC4)cc3OC)nc2N1C(C)C [volasertib]
How it was run: as §1

[3] = compound: CC[C@H](C)N1C=C(C2=C(C=C(C=C21)C3=CN=C(C=C3)N4CCNCC4)C(=O)NCC5=C(C=C(NC5=O)C)C)C
How it was run: as §1

[4] = compound: CC[C@H](C)[C@@H](C(=O)N[C@@H]([C@@H](C)O)C(=O)N[C@@H](CC(C)C)C(=O)[C@]1(CO1)C)NC(=O)[C@H]([C@@H](C)CC)N(C)C(=O)C [epoxomicin]
How it was run: as §1

[5] = compound: CCn1c(C(=O)N(C2CC2)C2CC2)cc2c3c(ncn3C)c(Nc3cc(C)n(C)n3)nc21
How it was run: as §1

[6] = compound: CCn1cc(-c2ccnc3[nH]c(-c4cccc(CN(C)C)c4)cc23)c(-c2ccc(NC(=O)N(C)C)cc2)n1
How it was run: as §1

[7] = compound: CN(C)CC(=O)Nc1ccc2[nH]c(=O)c3ccccc3c2c1
How it was run: as §1

[8] = compound: CN(CCOC1=CC=C(C=C1)C[C@H]2C(=O)NC(=O)S2)C3=CC=CC=N3 (racemic) [rosiglitazone]
How it was run: as §1

[9] = compound: CN1C2=C(C3=C1C(=O)N(N=C3)CC4=CC(=CC=C4)N)SC(=C2)S(=O)C
How it was run: as §1

[10] = compound: CN1CCC(CNc2ccc3ncc(-c4cccc(OC(F)(F)F)c4)n3n2)CC1
How it was run: as §1

Measured: log2 fold change

ADAMTSL4 isoform 3 (UniProt Q6UY14)
inactive: [1] 0.078 | [2] 0.068 | [3] -0.139 | [4] -0.147 | [5] 0.021 | [6] -0.103 | [7] -0.066 | [8] -0.028 | [9] 0.045 | [10] 0.037

ACACA isoform 4 (UniProt Q13085)
inactive: [1] 0.101 | [2] -0.373 | [3] 0.067 | [4] -0.092 | [5] -0.092 | [6] 0.058 | [7] 0.073 | [8] 0.118 | [9] 0.285 | [10] 0.04

ABCB10 (UniProt Q9NRK6)
inactive: [1] 0.009 | [2] 0.004 | [3] -0.019 | [4] 0.01 | [5] -0.003 | [6] 0.007 | [7] -0.033 | [8] -0.004 | [9] -0.034 | [10] -0.035

ABCD3 (UniProt P28288)
inactive: [1] 0.049 | [2] 0.092 | [3] 0.008 | [4] -0.033 | [5] -0.026 | [6] -0.02 | [7] 0.073 | [8] 0.035 | [9] -0.03 | [10] 0.094

ACSL4 (UniProt O60488)
inactive: [1] -0.15 | [2] -0.276 | [3] -0.051 | [4] 0.024 | [6] -0.029 | [7] 0.092 | [9] 0.051 | [10] -0.229
active: [8] 1.17

ACO1 (UniProt P21399)
inactive: [1] 0.023 | [2] 0.023 | [3] 0.018 | [4] 0.031 | [5] 0.038 | [6] -0.061 | [7] -0.011 | [8] -0.017 | [9] -0.077 | [10] -0.009

ABHD12 isoform 2 (UniProt Q8N2K0)
inactive: [1] 0.008 | [2] -0.033 | [3] 0.006 | [4] -0.007 | [5] 0.039 | [6] 0.051 | [7] -0.016 | [8] 0.025 | [9] 0.023 | [10] 0.006

ACADSB (UniProt P45954)
inactive: [1] 0.04 | [2] -0.013 | [3] 0.029 | [4] 0.02 | [5] 0.015 | [6] -0.103 | [7] 0.027 | [8] 0.078 | [9] -0.101 | [10] -0.071

ABRAXAS2 (UniProt Q15018)
inactive: [1] 0.021 | [2] 0.064 | [3] 0.002 | [4] -0.024 | [5] -0.014 | [6] -0.038 | [7] 0.005 | [8] 0.01 | [9] -0.036 | [10] -0.015

ADAT2 (UniProt Q7Z6V5)
inactive: [1] 0.037 | [2] -0.004 | [3] 0.003 | [4] 0.001 | [5] 0.002 | [6] -0.044 | [7] -0.008 | [8] 0.03 | [9] -0.148 | [10] 0.07

ACTBL2 (UniProt Q562R1)
inactive: [1] -0.121 | [2] 0.153 | [3] -0.133 | [4] -0.1 | [6] 0.162 | [7] -0.3 | [9] 0.011 | [10] 0.065

ABCF3 (UniProt Q9NUQ8)
inactive: [1] 0.043 | [2] -0.192 | [3] 0.099 | [4] -0.324 | [5] -0.097 | [6] -0.228 | [7] 0.017 | [8] -0.12 | [9] 0.446 | [10] 0.256

ABCF2 isoform 2 (UniProt Q9UG63)
inactive: [1] -0.003 | [2] 0.082 | [3] -0.004 | [4] 0.003 | [5] 0.007 | [6] -0.065 | [7] -0.003 | [8] 0.027 | [9] -0.029 | [10] -0.004

ACOT8 (UniProt O14734)
inactive: [1] 0.015 | [2] 0.028 | [3] 0.004 | [4] 0.047 | [5] 0.003 | [6] -0.004 | [7] -0.034 | [8] 0.02 | [9] -0.035 | [10] 0.085

ACTN4 (UniProt O43707)
inactive: [1] 0.035 | [2] -0.015 | [3] -0.027 | [4] -0.063 | [5] 0.02 | [6] -0.014 | [7] -0.033 | [8] 0 | [9] -0.069 | [10] 0.095

2 records drawn at random from the list so far:
ABCF3 (UniProt Q9NUQ8)
inactive: [1] 0.043 | [2] -0.192 | [3] 0.099 | [4] -0.324 | [5] -0.097 | [6] -0.228 | [7] 0.017 | [8] -0.12 | [9] 0.446 | [10] 0.256

ABCF2 isoform 2 (UniProt Q9UG63)
inactive: [1] -0.003 | [2] 0.082 | [3] -0.004 | [4] 0.003 | [5] 0.007 | [6] -0.065 | [7] -0.003 | [8] 0.027 | [9] -0.029 | [10] -0.004

Next part

ACTR2 (UniProt P61160)
inactive: [1] -0.02 | [2] -0.026 | [3] -0.011 | [4] 0.017 | [5] -0.008 | [6] 0.019 | [7] -0.037 | [8] 0.009 | [9] 0.018 | [10] -0.028

AAMDC (UniProt Q9H7C9)
inactive: [1] 0.081 | [2] 0.011 | [3] 0.012 | [4] 0.107 | [5] 0.073 | [6] -0.027 | [7] 0.04 | [8] 0.012 | [9] -0.124 | [10] 0.005

ACTN1 (UniProt H9KV75)
inactive: [1] 0.013 | [2] -0.116 | [3] -0.105 | [4] 0.015 | [5] -0.103 | [7] -0.039 | [8] -0.073 | [9] -0.078

ACADVL isoform 3 (UniProt P49748)
inactive: [1] 0.119 | [2] 0.099 | [3] -0.007 | [4] 0.025 | [6] -0.014 | [7] 0.004 | [9] -0.054 | [10] -0.045

ACTN1 (UniProt P12814)
inactive: [1] 0.022 | [2] 0.016 | [3] -0.02 | [4] 0.013 | [5] 0.007 | [6] -0.033 | [7] -0.014 | [8] 0.011 | [9] -0.051 | [10] 0.028

ABHD14B (UniProt Q96IU4)
inactive: [1] -0.03 | [2] -0.024 | [3] 0.018 | [4] 0.027 | [5] 0.017 | [6] -0.029 | [7] 0.094 | [8] 0.005 | [9] -0.056 | [10] 0.061

AARS (UniProt P49588)
inactive: [1] -0.023 | [2] 0.021 | [3] 0.003 | [4] 0.057 | [5] 0.021 | [6] -0.04 | [7] -0.007 | [8] 0.028 | [9] -0.047 | [10] 0.006

ACAD9 (UniProt Q9H845)
inactive: [1] 0.03 | [2] 0.024 | [3] -0.039 | [4] 0.015 | [6] 0.014 | [7] 0.022 | [9] -0.032 | [10] -0.002

ABCB8 (UniProt Q9NUT2)
inactive: [1] 0.015 | [2] -0.068 | [3] 0.033 | [4] 0.089 | [5] -0.047 | [6] 0.011 | [7] 0.013 | [8] 0 | [9] -0.05 | [10] -0.069

ABI2 (UniProt Q9NYB9)
inactive: [1] -0.023 | [2] -0.159 | [3] 0.076 | [4] 0.005 | [5] -0.02 | [6] -0.018 | [7] 0.078 | [8] -0.077 | [9] -0.025 | [10] -0.146

ABCC1 (UniProt P33527)
inactive: [1] 0.091 | [2] 0.01 | [3] -0.032 | [4] -0.021 | [5] 0.011 | [6] -0.049 | [7] -0.025 | [8] 0.022 | [9] -0.038 | [10] 0.11

ADAM10 (UniProt O14672)
inactive: [1] 0.037 | [2] -0.046 | [3] -0.026 | [4] -0.037 | [5] -0.016 | [6] -0.063 | [7] -0.045 | [8] 0.005 | [9] -0.041 | [10] 0.072

ACY1 (UniProt Q03154)
inactive: [1] 0.019 | [2] 0.049 | [3] -0.026 | [4] 0.029 | [5] -0.008 | [6] 0.004 | [7] 0.002 | [8] 0.023 | [9] -0.067 | [10] -0.028

ACP1 isoform 2 (UniProt P24666)
inactive: [1] 0.034 | [2] 0.055 | [3] 0.063 | [4] 0.012 | [6] -0.083 | [7] 0.05 | [9] 0.014 | [10] -0.07

ACLY isoform 2 (UniProt P53396)
inactive: [1] 0.018 | [2] -0.128 | [3] -0.018 | [4] -0.076 | [5] -0.017 | [7] -0.019 | [8] 0.059
